Laboratory results published in article PMC8234060.
These are yes or no findings as the source states them, for the method shown. Binding seen in cells or lysates may run through a third protein. Some results given as binding are weak or reduced against the parent protein; the word gives no strength.

Assays:
[1] = biological target: T1, Sigma 1 receptor (mouse (endogenous in 661 W)), O55242; assay: co-IP; 661 W cell lysate (500 ug total protein, Pierce IP lysis buffer) incubated with rabbit polyclonal anti-Sig1R overnight at 4 C; immune complexes precipitated by protein A/G agarose beads; immunoblot with anti-NRF2; conditions: remark: other sources report otherwise
T1 chain: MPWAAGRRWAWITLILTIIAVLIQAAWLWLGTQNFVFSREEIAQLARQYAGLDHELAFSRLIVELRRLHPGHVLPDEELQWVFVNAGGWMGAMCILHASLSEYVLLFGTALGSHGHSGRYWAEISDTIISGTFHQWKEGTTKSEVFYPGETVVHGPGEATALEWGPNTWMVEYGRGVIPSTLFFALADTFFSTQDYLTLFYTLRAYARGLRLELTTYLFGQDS

[2] = biological target: T1, Sigma 1 receptor (mouse (endogenous in …)); assay: proximity ligation; Duolink PLA In Situ Orange kit on fixed, permeabilised 661 W cells, with or without (+)-PTZ (20 uM) for 3 h or 24 h; rabbit anti-Sig1R and mouse anti-NRF2; probes join at <40 nm; conditions: remark: other sources report otherwise

B1: nuclear factor erythroid 2-related factor 2, Q60795 1-597 (protein)
chain: MMDLELPPPGLQSQQDMDLIDILWRQDIDLGVSREVFDFSQRQKDYELEKQKKLEKERQEQLQKEQEKAFFAQFQLDEETGEFLPIQPAQHIQTDTSGSASYSQVAHIPKQDALYFEDCMQLLAETFPFVDDHESLALDIPSHAESSVFTAPHQAQSLNSSLEAAMTDLSSIEQDMEQVWQELFSIPELQCLNTENKQLADTTAVPSPEATLTEMDSNYHFYSSISSLEKEVGNCGPHFLHGFEDSFSSILSTDDASQLTSLDSNPTLNTDFGDEFYSAFIAEPSDGGSMPSSAAISQSLSELLDGTIEGCDLSLCKAFNPKHAEGTMEFNDSDSGISLNTSPSRASPEHSVESSIYGDPPPGFSDSEMEELDSAPGSVKQNGPKAQPAHSPGDTVQPLSPAQGHSAPMRESQCENTTKKEVPVSPGHQKAPFTKDKHSSRLEAHLTRDELRAKALHIPFPVEKIINLPVDDFNEMMSKEQFNEAQLALIRDIRRRGKNKVAAQNCRKRKLENIVELEQDLGHLKDEREKLLREKGENDRNLHLLKRRLSTLYLEVFSMLRDEDGKPYSPSEYSLQQTRDGNVFLVPKSKKPDTKKN
- binding [1]: binds
- binding [2]: binds
